Results on two molecules are retold here after publication PMC11447708, “Comprehensive Exploration of Bromophenol Derivatives: Promising Antibacterial Agents against SA and MRSA” (ACS Omega, 2024).

This series concerns P. aeruginosa. The series can be described thus: microbroth dilution assay (MIC, resazurin). The format is cell-based, Pseudomonas aeruginosa. As to conditions: cytotoxicity IC50 (μM) HEK-293 / MIC (μM) P. aeruginosa. On the procedure: The antibacterial efficacy of the chosen compounds was assessed through the microbroth dilution assay conducted in 96-well culture plates.[21] A stock solution with a concentration of 20 mg/mL was prepared in dimethyl sulfoxide (DMSO). Subsequently, autoclaved nutrient broth (100 μL) was introduced into the culture plate wells, with the initial row of the microtiter plate receiving 100 μL of the test material. 2-fold serial dilutions of the test compounds were then meticulously executed. To serve as an indicator, 20 μL of 2× resazurin solution was added to each well. Finally, 10 μL of the bacterial suspension was incorporated into each well, yielding a final concentration of 5 × 10^6 CFU/mL. The experiment was conducted in duplicate, and the plates were incubated at 37 °C. After 18 h, the plates were scrutinized for any change in color indicative of bacterial growth.

Turning to `CC(=O)c1c(O)ccc(Br)c1O` [compound 2, 3-Bromo-2,6-dihydroxyacetophenone], the “therapeutic index (IC50/MIC) P. aeruginosa” value was determined as 3.
For `CC(=O)c1cc(Br)c(O)c(Br)c1O` [compound 3, 3,5-Dibromo-2,4-dihydroxyacetophenone] the value was 2.
